Laboratory results from US10376520B2, “Methods for the treatment of cardiovascular disorders” (Galapagos NV, priority 2015, dated 2019).
Further values from the same series stand in other lists.

System: RA patients
Experiment: LDL determination, Study 2 (RA patients, monotherapy)
Assay type: in vivo, human
Conditions: 50 mg q.d. non responders switching to 100 mg q.d. at week 12
Description: Randomized, double-blind, placebo-controlled, multicenter, phase IIb dose finding study of Compound 1 (dosed as a [Compound 1:HCl:3H2O]) administered for 24 weeks as monotherapy to subjects with moderately to severely active rheumatoid arthritis who have an inadequate response to methotrexate alone
Double-blind, placebo-controlled, monotherapy study in subjects with moderately to severely active RA who have an inadequate response to methotrexate (MTX) (oral or parenteral).
280 subjects randomized to one of 3 doses of Compound 1 (dosed as a [Compound 1:HCl:3H2O]) or to placebo, given once daily (q.d.).
Twelve weeks of treatment with Compound 1 (dosed as a [Compound 1:HCl:3H2O]) at 50 mg, 100 mg, or 200 mg q.d.; or placebo. At Week 12, all subjects on placebo and the subjects on the 50 mg dose who have not achieved 20% improvement in swollen joint count (SJC66) and tender joint count (TJC68) will be assigned to 100 mg q.d. in a blinded fashion and will continue treatment until Week 24. Subjects in the other groups will maintain their randomized treatment until Week 24.
The determination of [LDL]-cholesterol is made using an automated method taking advantage of the selective micellary solubilization of [LDL]-cholesterol by a nonionic detergent and the interaction of a sugar compound and lipoproteins (VLDL and chylomicrons).
When a detergent is included in the enzymatic method for cholesterol determination (cholesterol esterase, cholesterol oxidase coupling reaction), the relative reactivities of cholesterol in the lipoprotein fractions increase in this order: [HDL]<chylomicrons <VLDL <[LDL]. In the presence of Mg^2+, a sugar compound markedly reduces the enzymatic reaction of the cholesterol measurement in VLDL and chylomicrons. The combination of a sugar compound with detergent enables the selective determination of [LDL]-cholesterol in serum. (Friedewald et al., 1972; Rifai et al., 1992)
Homogeneous enzymatic colorimetric assay. […]
The color intensity of this dye is directly proportional to the cholesterol concentration and is measured photometrically. […]

O=C(Nc1nc2cccc(-c3ccc(CN4CCS(=O)(=O)CC4)cc3)n2n1)C1CC1 [Compound 1, cyclopropanecarboxylic acid {5-[4-(1,1-dioxo-thiomorpholin-4-ylmethyl)-phenyl]-[1,2,4]triazolo[1,5-a]pyridin-2yl}-amide]
[LDL] Mean percentage CFB - 24 weeks results (week 16): 6.76% | [LDL] Mean percentage CFB - 24 weeks results (week 20): 3.33% | [LDL] Mean percentage CFB - 24 weeks results (week 24): 3.17%
